From BindingDB's records for doi:10.1124/mol.63.6.1223 (Case Western Reserve University, 2003)

Amino acid sequences for entries named in this document (tags omitted).
UniProt P41595, whole entry: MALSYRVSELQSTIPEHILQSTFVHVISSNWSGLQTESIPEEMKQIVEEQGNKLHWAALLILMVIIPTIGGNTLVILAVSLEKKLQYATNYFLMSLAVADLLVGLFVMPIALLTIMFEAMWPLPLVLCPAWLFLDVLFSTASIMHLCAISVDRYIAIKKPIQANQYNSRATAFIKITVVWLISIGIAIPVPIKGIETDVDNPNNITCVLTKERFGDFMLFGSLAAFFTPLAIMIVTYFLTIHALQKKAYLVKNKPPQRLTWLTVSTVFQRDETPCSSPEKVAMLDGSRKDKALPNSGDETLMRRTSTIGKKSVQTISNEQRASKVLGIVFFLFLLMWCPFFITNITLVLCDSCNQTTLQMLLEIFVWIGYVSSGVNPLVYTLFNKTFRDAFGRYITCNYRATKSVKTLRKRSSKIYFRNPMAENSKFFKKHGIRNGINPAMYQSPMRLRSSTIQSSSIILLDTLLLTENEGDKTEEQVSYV

Molecular target: 5-hydroxytryptamine receptor 2B (Homo sapiens, UniProt P41595)

CC[C@@H](CO)NC(=O)[C@@H]1C=C2c3cccc4c3c(cn4C)C[C@H]2N(C)C1
Ki: 150 nM
